In the supplement of paper PMC10849652:
The list shows a part of the results.

Protein sequences, listed by entry. Tags and fused reporters are not part of them. Lines headed by an entry give the natural chain unless they say otherwise; changes in a name come on top.
UniProt P62258: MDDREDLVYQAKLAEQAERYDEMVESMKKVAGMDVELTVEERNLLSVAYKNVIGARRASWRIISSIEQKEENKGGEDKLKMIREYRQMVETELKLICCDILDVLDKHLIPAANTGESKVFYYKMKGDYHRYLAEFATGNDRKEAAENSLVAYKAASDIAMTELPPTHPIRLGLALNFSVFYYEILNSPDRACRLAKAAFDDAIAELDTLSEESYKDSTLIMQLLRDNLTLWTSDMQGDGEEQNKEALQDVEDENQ
UniProt Q9H0D6: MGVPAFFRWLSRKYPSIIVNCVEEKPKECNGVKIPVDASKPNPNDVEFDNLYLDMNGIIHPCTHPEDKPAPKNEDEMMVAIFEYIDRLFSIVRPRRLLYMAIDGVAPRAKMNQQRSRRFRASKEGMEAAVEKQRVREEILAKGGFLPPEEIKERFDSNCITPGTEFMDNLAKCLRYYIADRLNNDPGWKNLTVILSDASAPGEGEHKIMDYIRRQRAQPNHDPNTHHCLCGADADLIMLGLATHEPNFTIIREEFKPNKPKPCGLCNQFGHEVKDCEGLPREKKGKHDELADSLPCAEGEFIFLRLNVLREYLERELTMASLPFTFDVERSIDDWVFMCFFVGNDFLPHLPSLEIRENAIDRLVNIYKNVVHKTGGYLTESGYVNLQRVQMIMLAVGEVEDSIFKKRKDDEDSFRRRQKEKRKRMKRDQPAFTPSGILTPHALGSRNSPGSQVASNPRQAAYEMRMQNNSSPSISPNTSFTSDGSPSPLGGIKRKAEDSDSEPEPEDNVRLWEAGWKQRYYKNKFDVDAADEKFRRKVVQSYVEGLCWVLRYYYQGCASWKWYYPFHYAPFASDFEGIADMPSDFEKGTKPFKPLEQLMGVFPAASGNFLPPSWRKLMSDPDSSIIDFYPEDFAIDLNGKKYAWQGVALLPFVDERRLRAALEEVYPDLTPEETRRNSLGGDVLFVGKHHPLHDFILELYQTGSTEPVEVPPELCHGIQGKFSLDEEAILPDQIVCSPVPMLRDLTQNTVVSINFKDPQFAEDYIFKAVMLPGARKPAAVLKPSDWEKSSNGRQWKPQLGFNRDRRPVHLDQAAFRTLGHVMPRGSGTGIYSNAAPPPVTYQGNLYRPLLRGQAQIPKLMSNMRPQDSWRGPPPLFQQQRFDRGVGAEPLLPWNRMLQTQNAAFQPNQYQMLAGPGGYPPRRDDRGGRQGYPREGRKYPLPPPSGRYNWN
UniProt O95619, whole entry, looked up: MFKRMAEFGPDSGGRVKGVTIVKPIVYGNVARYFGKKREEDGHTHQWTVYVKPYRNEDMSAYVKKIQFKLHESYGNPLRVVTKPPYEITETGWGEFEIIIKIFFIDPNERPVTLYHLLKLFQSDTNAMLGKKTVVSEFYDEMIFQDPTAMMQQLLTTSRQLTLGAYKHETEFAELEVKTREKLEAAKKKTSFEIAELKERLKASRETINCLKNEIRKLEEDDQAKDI
UniProt Q9HCC9: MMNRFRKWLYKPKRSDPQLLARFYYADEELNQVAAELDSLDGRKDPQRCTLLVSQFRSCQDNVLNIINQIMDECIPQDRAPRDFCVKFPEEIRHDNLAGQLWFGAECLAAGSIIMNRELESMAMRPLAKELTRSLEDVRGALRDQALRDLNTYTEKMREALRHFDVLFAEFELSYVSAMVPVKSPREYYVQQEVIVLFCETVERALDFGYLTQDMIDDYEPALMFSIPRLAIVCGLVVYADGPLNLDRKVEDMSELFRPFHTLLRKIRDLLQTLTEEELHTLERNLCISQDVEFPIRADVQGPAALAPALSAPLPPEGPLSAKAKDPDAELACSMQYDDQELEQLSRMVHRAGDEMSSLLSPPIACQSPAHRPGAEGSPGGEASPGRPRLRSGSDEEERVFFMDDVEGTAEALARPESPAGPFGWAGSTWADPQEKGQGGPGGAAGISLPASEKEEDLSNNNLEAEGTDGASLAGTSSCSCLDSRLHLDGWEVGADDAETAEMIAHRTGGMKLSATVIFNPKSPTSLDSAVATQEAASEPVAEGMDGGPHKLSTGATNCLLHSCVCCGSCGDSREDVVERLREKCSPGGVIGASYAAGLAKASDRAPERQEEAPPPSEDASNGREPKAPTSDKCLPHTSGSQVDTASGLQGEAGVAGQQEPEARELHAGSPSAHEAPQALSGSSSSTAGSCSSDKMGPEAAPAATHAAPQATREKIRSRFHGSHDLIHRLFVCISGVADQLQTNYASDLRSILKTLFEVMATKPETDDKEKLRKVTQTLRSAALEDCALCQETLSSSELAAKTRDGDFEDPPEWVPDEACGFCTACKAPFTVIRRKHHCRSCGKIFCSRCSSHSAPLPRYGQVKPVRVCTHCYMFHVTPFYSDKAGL
UniProt Q96EC8: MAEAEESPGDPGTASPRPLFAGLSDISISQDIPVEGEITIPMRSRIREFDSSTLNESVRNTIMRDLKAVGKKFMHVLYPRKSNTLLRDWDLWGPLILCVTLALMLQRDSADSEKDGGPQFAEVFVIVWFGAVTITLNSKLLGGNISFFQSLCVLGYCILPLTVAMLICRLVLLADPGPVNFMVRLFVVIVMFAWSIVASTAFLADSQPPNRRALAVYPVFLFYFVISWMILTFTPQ
UniProt Q6PJT7: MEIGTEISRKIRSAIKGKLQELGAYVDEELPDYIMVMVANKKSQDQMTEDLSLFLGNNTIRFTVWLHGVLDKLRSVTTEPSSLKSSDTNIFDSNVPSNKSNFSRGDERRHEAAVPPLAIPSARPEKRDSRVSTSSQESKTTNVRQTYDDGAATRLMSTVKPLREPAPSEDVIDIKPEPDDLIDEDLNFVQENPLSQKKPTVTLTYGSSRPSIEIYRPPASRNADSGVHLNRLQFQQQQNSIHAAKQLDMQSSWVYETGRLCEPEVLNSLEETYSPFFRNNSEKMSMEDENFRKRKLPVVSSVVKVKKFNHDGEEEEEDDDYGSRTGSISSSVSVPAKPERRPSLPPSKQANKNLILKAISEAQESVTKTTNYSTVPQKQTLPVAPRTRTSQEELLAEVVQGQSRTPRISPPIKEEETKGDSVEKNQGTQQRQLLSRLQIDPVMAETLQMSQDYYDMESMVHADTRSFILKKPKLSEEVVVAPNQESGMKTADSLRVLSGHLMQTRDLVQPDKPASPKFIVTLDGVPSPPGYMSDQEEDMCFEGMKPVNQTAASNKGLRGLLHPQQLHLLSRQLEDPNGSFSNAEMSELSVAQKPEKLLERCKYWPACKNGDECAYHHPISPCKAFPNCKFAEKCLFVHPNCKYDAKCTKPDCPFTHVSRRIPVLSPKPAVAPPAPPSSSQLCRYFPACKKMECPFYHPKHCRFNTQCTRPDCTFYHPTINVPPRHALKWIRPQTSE
UniProt O60293: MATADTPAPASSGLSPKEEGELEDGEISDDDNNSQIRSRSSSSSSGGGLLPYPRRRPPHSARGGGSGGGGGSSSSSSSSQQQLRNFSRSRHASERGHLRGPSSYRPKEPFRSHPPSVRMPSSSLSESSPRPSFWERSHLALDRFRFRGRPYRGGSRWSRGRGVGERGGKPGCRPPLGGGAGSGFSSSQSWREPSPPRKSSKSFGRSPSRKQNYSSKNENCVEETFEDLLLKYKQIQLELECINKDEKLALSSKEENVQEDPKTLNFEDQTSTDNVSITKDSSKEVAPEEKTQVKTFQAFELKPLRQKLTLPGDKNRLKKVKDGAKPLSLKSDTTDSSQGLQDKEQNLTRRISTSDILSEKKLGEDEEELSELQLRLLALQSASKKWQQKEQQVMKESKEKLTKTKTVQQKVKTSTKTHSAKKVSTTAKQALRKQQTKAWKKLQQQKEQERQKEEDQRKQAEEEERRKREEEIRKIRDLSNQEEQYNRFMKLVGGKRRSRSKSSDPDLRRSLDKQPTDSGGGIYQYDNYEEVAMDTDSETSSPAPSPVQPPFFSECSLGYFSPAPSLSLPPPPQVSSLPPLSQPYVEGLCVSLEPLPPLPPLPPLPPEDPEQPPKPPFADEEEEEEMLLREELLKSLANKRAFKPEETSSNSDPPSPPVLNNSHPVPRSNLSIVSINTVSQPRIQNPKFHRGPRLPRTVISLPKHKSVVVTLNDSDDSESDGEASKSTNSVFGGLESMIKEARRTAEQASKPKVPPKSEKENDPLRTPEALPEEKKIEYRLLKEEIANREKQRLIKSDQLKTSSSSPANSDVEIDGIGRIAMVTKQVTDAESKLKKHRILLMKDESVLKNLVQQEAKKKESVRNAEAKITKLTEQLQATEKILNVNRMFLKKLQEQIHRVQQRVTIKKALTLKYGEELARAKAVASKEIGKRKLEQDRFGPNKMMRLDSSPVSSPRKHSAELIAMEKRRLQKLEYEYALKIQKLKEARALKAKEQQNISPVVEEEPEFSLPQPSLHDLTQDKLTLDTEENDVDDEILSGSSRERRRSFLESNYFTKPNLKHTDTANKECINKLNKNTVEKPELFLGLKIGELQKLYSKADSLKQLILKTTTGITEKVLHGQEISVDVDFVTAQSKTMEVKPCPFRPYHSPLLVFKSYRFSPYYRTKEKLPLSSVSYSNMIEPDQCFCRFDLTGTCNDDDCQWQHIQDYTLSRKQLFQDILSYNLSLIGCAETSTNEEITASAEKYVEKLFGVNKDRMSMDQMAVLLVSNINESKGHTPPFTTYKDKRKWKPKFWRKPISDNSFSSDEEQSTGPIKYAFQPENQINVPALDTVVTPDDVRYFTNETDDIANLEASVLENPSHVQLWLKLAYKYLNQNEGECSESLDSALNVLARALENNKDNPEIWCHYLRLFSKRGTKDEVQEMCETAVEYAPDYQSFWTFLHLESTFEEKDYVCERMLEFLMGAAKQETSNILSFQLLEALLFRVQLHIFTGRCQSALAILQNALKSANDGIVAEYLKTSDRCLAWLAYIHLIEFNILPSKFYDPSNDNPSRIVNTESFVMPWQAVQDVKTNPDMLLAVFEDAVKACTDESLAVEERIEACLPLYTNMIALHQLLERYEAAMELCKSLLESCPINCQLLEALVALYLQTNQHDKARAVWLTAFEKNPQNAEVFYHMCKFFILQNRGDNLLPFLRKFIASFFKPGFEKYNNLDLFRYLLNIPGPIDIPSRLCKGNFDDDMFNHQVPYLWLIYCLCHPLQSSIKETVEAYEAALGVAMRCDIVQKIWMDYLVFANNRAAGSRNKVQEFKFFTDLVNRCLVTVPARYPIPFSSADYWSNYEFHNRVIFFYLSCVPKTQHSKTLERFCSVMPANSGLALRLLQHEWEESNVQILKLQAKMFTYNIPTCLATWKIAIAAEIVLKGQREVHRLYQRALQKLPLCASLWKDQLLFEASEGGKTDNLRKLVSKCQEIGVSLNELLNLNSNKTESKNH
UniProt O95365: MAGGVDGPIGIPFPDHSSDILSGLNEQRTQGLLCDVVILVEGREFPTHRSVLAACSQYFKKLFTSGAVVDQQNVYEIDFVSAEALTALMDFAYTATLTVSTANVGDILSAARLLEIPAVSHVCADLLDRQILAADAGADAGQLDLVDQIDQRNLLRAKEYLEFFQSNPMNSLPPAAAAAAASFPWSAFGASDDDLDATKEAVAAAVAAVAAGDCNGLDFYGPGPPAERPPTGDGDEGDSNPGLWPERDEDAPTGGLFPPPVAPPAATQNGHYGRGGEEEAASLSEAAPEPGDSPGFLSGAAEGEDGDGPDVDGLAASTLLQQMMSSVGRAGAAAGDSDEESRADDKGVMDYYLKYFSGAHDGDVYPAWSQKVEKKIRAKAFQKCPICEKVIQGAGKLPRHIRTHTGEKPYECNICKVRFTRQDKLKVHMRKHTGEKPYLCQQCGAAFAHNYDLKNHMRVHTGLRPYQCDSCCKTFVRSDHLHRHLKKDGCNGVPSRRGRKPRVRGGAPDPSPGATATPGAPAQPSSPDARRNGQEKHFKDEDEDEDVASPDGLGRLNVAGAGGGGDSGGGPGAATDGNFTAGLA
UniProt Q9Y5A9: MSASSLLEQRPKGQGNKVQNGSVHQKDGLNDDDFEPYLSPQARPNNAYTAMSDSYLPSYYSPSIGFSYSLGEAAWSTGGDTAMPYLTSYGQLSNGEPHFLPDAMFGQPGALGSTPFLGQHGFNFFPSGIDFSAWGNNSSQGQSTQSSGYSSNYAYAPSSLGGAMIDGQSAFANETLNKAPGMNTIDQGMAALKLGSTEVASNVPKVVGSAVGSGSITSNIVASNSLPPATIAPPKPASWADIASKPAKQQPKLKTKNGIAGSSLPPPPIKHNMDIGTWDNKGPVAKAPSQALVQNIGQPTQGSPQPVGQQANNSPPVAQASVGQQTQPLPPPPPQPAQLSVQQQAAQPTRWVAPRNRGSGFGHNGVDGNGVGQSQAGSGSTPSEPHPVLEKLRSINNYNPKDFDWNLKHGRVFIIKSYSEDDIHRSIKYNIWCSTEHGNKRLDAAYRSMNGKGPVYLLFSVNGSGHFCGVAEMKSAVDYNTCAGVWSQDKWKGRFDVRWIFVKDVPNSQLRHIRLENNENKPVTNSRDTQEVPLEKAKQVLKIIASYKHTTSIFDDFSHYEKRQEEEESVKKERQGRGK

Assays:
Assay in all cases: log2 fold change, soluble protein after heating vs DMSO (PISA); higher = thermal stabilisation; K562 lysate, 10 uM; active = over 0.2 and 3.5 SD of the protein, either way, in both replicates (recomputed)
[1] = compound: C1=CC=C(C=C1)[C@H](COC2=CC3=C(C=C2)NC(=O)N3)NC(=O)C4=CC=CN(C4=O)CC5=CC(=C(C=C5)F)F
Summary of the method: (§1)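 Soluble protein was defined as the supernatant remaining after 21,000xg for 90 min, following pooling of heated aliquots and adjustment to 0.5% NP-40 at 4°C. Before that, crude K562 extract at 1 mg/mL protein in PBS pH 7.4 with 1 mM MgCl2 was treated with 10 μM compound for 30 min and heated for 3 min across 48°C-58°C. Quantification used TMTpro 16plex LC-MS/MS with channel sums equalised, and values are log-two fold changes in thermal stability relative to solvent controls from duplicates.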

[2] = compound: CC1=C(SC2=C1C(=N[C@H](C3=NN=C(N32)C)CC(=O)N)C4=CC=C(C=C4)Cl)C
Summary of the method: as §1

[3] = compound: CC1=C2C(=CC=C1)N=C(N(C2=O)C3=CC=CC=C3C)CN4C=NC5=C(N=CN=C54)N
Summary of the method: as §1

[4] = compound: Cc1sc2c(c1C)C(c1ccc(Cl)cc1)=N[C@@H](CC(=O)OC(C)(C)C)c1nnc(C)n1-2
Summary of the method: as §1

[5] = compound: c1ccc([C@@H]2C[C@H]2NC2CCNCC2)cc1
Summary of the method: as §1

Measured: log2 fold change

YJU2 (UniProt Q9BW85)
inactive: [1] 0.021 | [2] 0.033 | [3] -0.027 | [4] -0.009 | [5] -0.004

ZBTB33 (UniProt Q86T24)
inactive: [1] 0.046 | [2] -0.082 | [3] 0.003 | [4] 0 | [5] -0.015

YWHAQ (UniProt P27348)
inactive: [1] 0.002 | [2] 0.021 | [3] -0.001 | [4] 0.076 | [5] 0.181

YWHAE (UniProt P62258)
inactive: [1] 0.032 | [2] -0.013 | [3] 0.012 | [4] -0.023 | [5] -0.014

XRN2 (UniProt Q9H0D6)
inactive: [1] 0.037 | [2] -0.029 | [3] -0.015 | [4] 0.019 | [5] -0.009

Two neighbouring entries from above, quoted:
ZBTB33 (UniProt Q86T24)
inactive: [1] 0.046 | [2] -0.082 | [3] 0.003 | [4] 0 | [5] -0.015

YWHAQ (UniProt P27348)
inactive: [1] 0.002 | [2] 0.021 | [3] -0.001 | [4] 0.076 | [5] 0.181

(list continues)

ZC3HC1 (UniProt Q86WB0)
inactive: [1] 0.002 | [2] 0.045 | [3] 0.006 | [4] 0.019 | [5] 0.061

XPR1 (UniProt Q9UBH6)
inactive: [1] -0.003 | [2] -0.044 | [3] -0.096 | [4] -0.004 | [5] 0.038

ZFAND6 (UniProt Q6FIF0)
inactive: [1] 0.075 | [2] 0.013 | [3] -0.017 | [4] -0.068 | [5] -0.158

ZDHHC13 (UniProt Q8IUH4)
inactive: [1] 0.044 | [2] 0.223 | [3] -0.003 | [4] -0.029 | [5] 0.101

YEATS4 (UniProt O95619)
inactive: [1] -0.014 | [2] 0.05 | [3] -0.029 | [4] 0.046 | [5] 0.25

ZDHHC18 (UniProt Q9NUE0)
inactive: [1] 0.103 | [2] 0.115 | [3] 0.075 | [4] -0.072 | [5] 0.043

ZFYVE16 (UniProt Q7Z3T8)
inactive: [1] 0.01 | [2] -0.008 | [3] 0.009 | [4] -0.006 | [5] -0.008

ZFYVE28 (UniProt Q9HCC9)
inactive: [1] 0.05 | [2] -0.131 | [3] 0.048 | [4] -0.086 | [5] 0.059

ZFR (UniProt Q96KR1)
inactive: [1] 0.047 | [2] -0.043 | [3] 0.001 | [4] -0.014 | [5] -0.034

YIPF6 (UniProt Q96EC8)
inactive: [1] 0.023 | [2] 0 | [3] 0.03 | [4] -0.07 | [5] 0.037

ZC3H14 (UniProt Q6PJT7)
inactive: [1] -0.008 | [2] -0.007 | [3] -0.031 | [4] -0.05 | [5] -0.057

ZFC3H1 (UniProt O60293)
inactive: [1] -0.042 | [2] 0.003 | [3] 0.069 | [4] 0.017 | [5] 0.089

XPO6 (UniProt Q96QU8)
inactive: [1] -0.053 | [2] 0.057 | [3] 0.023 | [4] 0.039 | [5] -0.045

XPO7 (UniProt Q9UIA9)
inactive: [1] -0.024 | [2] 0.021 | [3] 0.04 | [4] -0.016 | [5] -0.002

ZBTB7A (UniProt O95365)
inactive: [1] 0.285 | [2] -0.07 | [3] 0.072 | [4] 0.007 | [5] 0.058

YTHDF2 (UniProt Q9Y5A9)
inactive: [1] -0.033 | [2] -0.012 | [3] -0.037 | [4] 0.014 | [5] 0.011

YIF1B (UniProt Q5BJH7)
inactive: [1] -0.008 | [2] 0.005 | [3] 0.059 | [4] -0.024 | [5] 0.044

XYLB (UniProt O75191)
inactive: [1] -0.032 | [2] -0.072 | [3] 0.004 | [4] 0.031 | [5] -0.051

YTHDC1 (UniProt Q96MU7)
inactive: [1] 0.034 | [2] -0.06 | [3] 0.186 | [4] -0.103 | [5] -0.047

XPNPEP3 (UniProt Q9NQH7)
inactive: [1] -0.04 | [2] -0.007 | [3] -0.009 | [4] 0 | [5] 0.011
